Source: PubChem BioAssay AID624297 (National Center for Advancing Translational Sciences (NCATS), 2012)
In all, about 340,000 compounds went through this assay and about 6,200 (1.8%) were called active. Inconclusive results, whose numbers are uncertain, are shown with a selection of clear calls. Calls follow the shape of the dose curve; as a rule, active = well fitted activation curve with a large enough effect; inconclusive = small, poorly fitted or top-dose-only effect; inactive = no such curve, though single readings can be large or run the other way. Potencies beside an inconclusive call are fits to weak or partial responses and may not hold up.
Potency is read from the fitted curve at half-maximal effect.

Test: A quantitative high throughput screen for small molecules that induce DNA re-replication in SW480 colon adenocarcinoma cells. Also: nearly all actives have a fitted effect of over 55% in size. As to re-replication activation: % of control where 0% means no effect.
Settings: Hoechst DNA content imaging, 48 h; re-replication activation: at 46.1 µM (top of the series) unless noted
Summary of the method: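 Treated cells incubate 48 hr (37 C, 5% CO2), are stained 40 min with Hoechst, and nuclear fluorescence is enumerated; a rise in nuclei with high DNA signal marks re-replication.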
For `CCN(CC)c1ccc(S(=O)(=O)N2CCOCC2)cc1NC(=O)COC(=O)C1=COCCO1`, the Potency was inconclusive: 1.84 µM [activator, full curve, poor fit].
For `CN(C(=O)c1ccc(NC(=O)Cc2cccc(NC(=O)C3CCN(C(=O)C4CCCC4)CC3)c2)cc1)C1CC1`, the Potency was inconclusive: 6.51 µM [activator, single point].
For `COc1ccc(Nc2ccc(S(=O)(=O)N3CCCCC3)cc2[N+](=O)[O-])cc1OC`, the “re-replication activation” value was inactive: -1.63%.
In the case of `CCOc1ncccc1C(=O)N1CCN(C(=O)c2ccccc2)CC1`, the “re-replication activation” value is reported as inactive: 5.73%.
With `CN(C)C(CNC(=O)C1CCN(C(=O)/C=C/c2ccccc2)CC1)c1ccccc1` (configuration not stated) the Potency was inconclusive: 9.2 µM [activator, partial curve, poor fit].
For `Cc1ccc(NC(=O)c2nc[nH]c2C(=O)N2CCC(C)CC2)cc1`, the Potency was inconclusive: 0.231 µM [activator, full curve].
With `O=C1C=C(NCCc2cc(Br)c(O)c(Br)c2)C(=O)c2ncccc21` the Potency was active: 3.66 µM.
In the case of `O=C(COc1ccc2ccccc2c1Br)N1CCN(c2ccccn2)CC1`, the Potency is reported as inconclusive: 13 µM [activator, partial curve].
With `Cc1nn(CCC(=O)NNC(=S)NCC(C)C)c(C)c1Br` the Potency was active: 3.66 µM.
For `Cc1ccc(C)n1-c1ccc(N(C)C)cc1`, the Potency was inconclusive: 29.1 µM [activator, single point].
In the case of `CCN1CCCC1CNC(=O)c1ccc2c(c1)NC(=O)/C(=C\c1ccc(OC)c(OC)c1)S2` (configuration not stated), the Potency is reported as inconclusive: 23.1 µM [activator, single point].
For `CN(C)CCCNS(=O)(=O)c1ccc(N2CCN(Cc3ccc4c(c3)OCO4)CC2)c([N+](=O)[O-])c1`, the Potency was inconclusive: 29.1 µM [activator, partial curve, poor fit].
In the case of `Cc1ccc(-c2nc3ccccc3[nH]2)cc1NC(=O)c1sc2ccccc2c1Cl`, the Potency is reported as inconclusive: 18.4 µM [activator, partial curve, poor fit].
In the case of `Nc1c(Cl)cc(C2=NCCn3c2c2ccccc2[n+]3[O-])cc1Cl`, the “re-replication activation” value is reported as inactive: -18.4%.
With `COc1ccc2oc(=N)c(C(=O)Nc3cccc(C)c3C)cc2c1` the “re-replication activation” value was inactive: -6.35%.
For `O=C(c1nn(Cc2ccccc2)c(=O)c2ccccc12)N1CCN(C/C=C/c2ccccc2)CC1`, the Potency was inconclusive: 23.1 µM [activator, single point].
For `CCCC1=Nc2cc(C(=O)NCCCOCC)ccc2Sc2ccccc21`, the Potency was inconclusive: 1.26 µM [activator, full curve, poor fit].
For `Cc1nc2c(C)cccn2c(=O)c1NC(=O)c1ccco1`, the “re-replication activation” value was inactive: -0.786%.
With `CCOC(=O)c1cnc(-n2nc(C)cc2C)nc1Nc1ccc(N(C)C)cc1` the “re-replication activation” value was inactive: -4.19%.
With `CN(Cc1cccc(Cl)c1Cl)C(=O)c1cc(S(=O)(=O)N2CCOCC2)ccc1F` the “re-replication activation” value was inactive: 12.7%.
For `Cc1ccc(Cl)cc1N1CCN(S(=O)(=O)c2cn(C)cn2)CC1`, the Potency was inconclusive: 5.17 µM [activator, full curve, poor fit].
In the case of `Cn1c(Cn2c(=O)sc3ccccc32)nnc1SCC(=O)NCc1ccccc1`, the “re-replication activation” value is reported as inactive: 8.68%.
In the case of `CC(=O)Oc1ccc(-c2nc3ccccc3c(=O)o2)cc1`, the Potency is reported as inconclusive: 0.116 µM [activator, full curve, poor fit].
With `CCC1C(=O)N(C)CCc2ccccc21` (configuration not stated) the Potency was inconclusive: 0.0058 µM [activator, full curve, poor fit].
With `Cc1ccccc1/C(N)=N/OC(=O)c1ccc(F)cc1` the Potency was inconclusive: 18.4 µM [activator, single point].
In the case of `Nc1ccc(Cc2ccc([N+](=O)[O-])cc2)cc1`, the “re-replication activation” value is reported as inactive: -2.25%.
With `Cc1noc(C)c1CSc1nc2ccccc2c(=O)n1-c1ccc(F)cc1F` the Potency was inconclusive: 20.6 µM [activator, single point].
In the case of `O=C(NCc1ccco1)c1cccc(NC(=O)c2ccco2)c1`, the Potency is reported as inconclusive: 36.6 µM [activator, partial curve, poor fit].
For `C=CCN(C(=O)CCC(=O)Nc1cc(C)on1)C(C(=O)NC1CCCC1)c1ccc(OC)cc1OC` (configuration not stated), the “re-replication activation” value was inactive: -6.23%.
In the case of `CCN(CC)c1c([N+](=O)[O-])c(=O)n(C)c2ccccc12`, the Potency is reported as inconclusive: 0.058 µM [activator, full curve, poor fit].
In the case of `O=C1C=CC(=O)N1c1cccc(-c2ccccc2)c1`, the Potency is reported as inconclusive: 18.4 µM [activator, single point].
For `Cc1ccc(C(=O)N2CCN3C(=O)c4ccccc4C23c2ccc(Cl)cc2)cc1` (configuration not stated), the Potency was inconclusive: 23.1 µM [activator, single point].
In the case of `Nc1cccc(N=[N+]([O-])c2cccc(N)c2)c1`, the “re-replication activation” value is reported as inactive: -0.894%.
For `CCCOc1ccc(NC(=O)CC2C(=O)Nc3ccccc3N2CC(=O)N2CCCC2)cc1` (configuration not stated), the Potency was inconclusive: 29.1 µM [activator, single point].
With `Cc1cc2nc(-c3ccc(SCC(=O)Nc4ccc(S(=O)(=O)NC5CC5)cc4)nc3)[nH]c2cc1C` the Potency was inconclusive: 20.6 µM [activator, partial curve, poor fit].
In the case of `OC(CNCc1cccc(Cl)c1)c1ccccc1` (configuration not stated), the Potency is reported as inconclusive: 29.1 µM [activator, single point].
With `CCN(C[C@H]1N[C@@](Cc2ccccc2)(C(=O)OC)[C@H]2C(=O)N(Cc3ccccc3)C(=O)[C@@H]12)S(=O)(=O)c1ccc(C)cc1` the Potency was inconclusive: 18.4 µM [activator, partial curve, poor fit].
With `CCOc1ccc(C(=O)NC(=S)Nc2cccc(S(=O)(=O)NC3=NCCC3)c2)cc1` the Potency was inconclusive: 0.58 µM [activator, partial curve, poor fit].
In the case of `O=C(Nc1cccc(S(=O)(=O)N2CCCC2)c1)c1ccc(Cl)nc1`, the Potency is reported as active: 18.4 µM.
With `Cc1ccc(S(=O)(=O)N2CCN(S(=O)(=O)c3ccc(C)cc3)C3OCCOC32)cc1` (configuration not stated) the Potency was inconclusive: 6.51 µM [activator, single point].
In the case of `CC1=NN(C(=O)Cc2ccc([N+](=O)[O-])cc2)C(O)(c2cccnc2)C1` (configuration not stated), the “re-replication activation” value is reported as inactive: -1.07%.
With `Cc1nc2ccccc2cc1C(=O)N(C)Cc1ccccc1` the “re-replication activation” value was inactive: -0.32%.
For `COCCn1c(N)c(C(=O)NCc2cccs2)c2nc3ccccc3nc21`, the Potency was inconclusive: 4.11 µM [activator, single point].
In the case of `Cc1ccc(S(=O)(=O)C(NC(=O)c2ccccc2)=C(Cl)Cl)cc1`, the Potency is reported as inconclusive: 18.4 µM [activator, single point].
For `Cc1ccc(/C=N/NC(=O)c2csc3c2CCCC3)cc1`, the Potency was inconclusive: 2.91 µM [activator, full curve, poor fit].
In the case of `CCOc1cc(/C=N\NC(N)=O)cc(Br)c1OC(C)C`, the Potency is reported as inconclusive: 0.461 µM [activator, full curve, poor fit].
In the case of `CC(C)COc1ccc(CNC(=S)N/N=C/c2ccc([N+](=O)[O-])cc2)cc1`, the Potency is reported as inconclusive: 18.4 µM [activator, single point].
In the case of `CCCCOc1cc(C)nc(NCc2ccccc2)n1`, the Potency is reported as inconclusive: 20.6 µM [activator, single point].
With `CCOC(=O)C1(CCOc2ccccc2)CCN(Cc2ccc(O)cc2)CC1` the Potency was inconclusive: 29.1 µM [activator, single point].
For `O=C1CSC(=S)N1Cc1cccs1`, the Potency was inconclusive: 29.1 µM [activator, single point].
For `COc1cccc(C(C(=O)Nc2ccc(F)cc2)N(C(=O)Cn2nnc3ccccc32)C2CC2)c1` (configuration not stated), the Potency was inconclusive: 0.092 µM [activator, full curve, poor fit].
For `CC(CCc1ccco1)N(C)S(=O)(=O)c1csc(C(N)=O)c1` (configuration not stated), the Potency was inconclusive: 32.6 µM [activator, partial curve, poor fit].
With `COc1ccc([N+](=O)[O-])cc1N(CC(=O)N1CCCC1)S(C)(=O)=O` the Potency was inconclusive: 29.1 µM [activator, single point].
For `CCOc1ccc(S(=O)(=O)N2CCN(C(=S)NCC3CCCO3)CC2)cc1` (configuration not stated), the Potency was inconclusive: 29.1 µM [activator, single point].
For `O=C(/C=C/c1ccco1)NC(=S)Nc1nc(-c2ccc3ccccc3c2)cs1`, the Potency was inconclusive: 25.9 µM [activator, single point].
With `COc1ccc(CSCCc2n[nH]c(=S)n2-c2ccccc2)cc1C` the “re-replication activation” value was inactive: -6.76%.
For `Cc1ccc(S(=O)(=O)N/N=C\c2cc3c(cc2Br)OCO3)cc1`, the Potency was inconclusive: 29.1 µM [activator, single point].
With `CCOc1ccccc1NC(=O)COc1coc(CN2CCCc3ccccc32)cc1=O` the “re-replication activation” value was inactive: -24.3%.
In the case of `Cc1cccc(NC(=O)c2cccc(S(=O)(=O)NCc3ccccc3)c2)n1`, the Potency is reported as inconclusive: 0.0052 µM [activator, full curve, poor fit].
For `Cc1cccc(N2CCN(C(=S)Nc3ccc4nc5n(c(=O)c4c3)CCCCC5)CC2)c1C`, the Potency was inconclusive: 20.6 µM [activator, single point].
With `Cc1ccc(C(=O)N(CCCN(C)C)c2nc3ccc(Cl)cc3s2)cc1C` the Potency was inconclusive: 29.1 µM [activator, single point].
In the case of `COC(=O)c1ccc(NC(=O)Nc2ccc(F)cc2F)cc1`, the “re-replication activation” value is reported as inactive: 2.9%.
With `COc1cc(C#Cc2c(-c3ccccc3)n(C)c3ccccc23)cc(OC)c1` the “re-replication activation” value was inactive: 12.7%.
For `CN(C)c1cc(-c2ccccc2)nc(N)n1`, the Potency was inconclusive: 16.4 µM [activator, single point].
In the case of `CC1(C)CC2CC(C)(CN2S(=O)(=O)c2ccc(C(=O)Nc3ccc(S(=O)(=O)N4CCOCC4)cc3)cc2)C1` (configuration not stated), the “re-replication activation” value is reported as inactive: -10.7%.
With `Cc1ccc2c(c1)sc(-c1ccc(N(C)C)cc1)[n+]2C` the Potency was active: 13 µM.
With `N#Cc1ccc(C23OCCN2CCn2c3c3ccccc3[n+]2[O-])cc1` (configuration not stated) the Potency was inconclusive: 18.4 µM [activator, single point].
